Reference: PubChem BioAssay AID1508600 (Functional Genomics Laboratory (NCATS/FGL), 2020)
The campaign covered roughly 53,000 sequences. About 3,700 (7%) were called active.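 How the source made its calls: active means gene knockdowns whose robust z-score for IL-1 alpha signal is at least 2 or at most -2, so actives lie on both sides; inactive means the rest.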 Some of the results follow.

Assay: Components of the Cytosolic LPS Sensing Pathway: Gene Identification via Genome-wide siRNA Screen;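 further: robust z of the log signal after scaling to non-targeting control siRNA wells of the plate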
Details: RAW264.7 macrophages, IL-1a HTRF, actives lie on both sides, screened at 100 nM (by protocol), cells primed 5 h with Pam3CSK4 first
In short: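 IL-1a HTRF of supernatants after 24 hour LipidA transfection of Pam3CSK4-primed (5 hours) RAW264.7 cells, 48h post-siRNA transfection (100 nM). Scores: percent of plate negative-control median, then log-based robust z-score.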
In the case of GGUUGUUCUUAACAUAACCTT against Ginm1, the z-score is reported as inactive: 0.0306. For GGACCUGGAAAUAAUUGUUTT against Pex5l, the z-score was inactive: 0.574. For GGUUGAUGCCGUGAACUCUTT against Pdxk, the z-score was inactive: -0.634. In the case of CCUGCGUUAAGUGAUAAAGTT against Blm, the z-score is reported as inactive: 0.171. With “GCCGCACUGUAACUUCAUCTT against D830039M14Rik” the z-score was inactive: 0.896. In the case of CCCACGAAGCUAAGUGGAATT against Stkld1, the z-score is reported as inactive: 0.067. In the case of GGUAAAGUGACCGAACACUTT against Tigar, the z-score is reported as inactive: 1.02. In the case of GGAGUUUGUCAACUUCUUCTT against Mcoln3, the z-score is reported as inactive: -0.716. In the case of CCUAUAAAGACUUAACGAATT against Mettl24, the z-score is reported as inactive: 0.947. With GGUGAGUCAACUGUAUUUCTT against Poc1a the z-score was inactive: -0.342. With CCACCCUGAUUUAAGAAGGTT against Ndufs3 the z-score was active: 2.53. With CCUCAUAACAACGACUCCUTT against Cxcr5 the z-score was inactive: -0.687. With GGAAGGUCAGAACAACGACTT against Tpcn1 the z-score was inactive: -0.92. With GGAGACAUCCUAAAAUUUGTT against Adcy10 the z-score was inactive: -0.777. For “GGAAACUUCUGCACUUGGGTT against 4930474M22Rik”, the z-score was inactive: 0.558. In the case of CCGGUGGUAAUUUCACCCUTT against C2, the z-score is reported as inactive: -1.01. In the case of GGCCCAUCUAAGCUACAGATT against Rab40b, the z-score is reported as inactive: -1.07. In the case of CCAUCAAAGUCAUCGACGGTT against Birc6, the z-score is reported as inactive: -0.427. In the case of GGAACUGUAUGAAAUGCUGTT against Pdgfb, the z-score is reported as inactive: 0.0794. In the case of CGUGGAGUGUUAAAGAAUUTT against Il23r, the z-score is reported as inactive: 0.373. With GCUGAUUGAGCAUCCGAUGTT against Ggt1 the z-score was active: 2.78. For GCUUAUGAUUCCAAGGCAGTT against Serpina6, the z-score was inactive: 0.9. For GCAAUGGACCUGGUACAAGTT against Myg1, the z-score was inactive: -0.922. With GGUCACAACUUUUGAGCACTT against Gna11 the z-score was inactive: -0.336. For GGUGGAACACAAUGGAUGCTT against Vwc2l, the z-score was inactive: -0.246. With GGUUCGCCCUUGGAAAUGGTT against Dmap1 the z-score was inactive: -0.258. With GCAGAACUCUGGAAUCAAGTT against Pgap3 the z-score was inactive: 0.401. With GGGCACGGUAUUCCAUUUCTT against Utp4 the z-score was inactive: -0.563. For GGGUGUGAUCCAAGCUAUCTT against Rtn4, the z-score was inactive: 1.61. With GGUGGGAAAAAACAUAAGGTT against Fam149a the z-score was inactive: 0.462. In the case of GCUGUUAUAACCUUGUUACTT against Rspry1, the z-score is reported as inactive: 1.19. In the case of GGAAGCAUCCUUUGAUGAGTT against Afm, the z-score is reported as inactive: -1.1. In the case of GGAGAACAGACACAGGGUGTT against Dlgap5, the z-score is reported as inactive: -0.284. In the case of GCGGACAGGCACAGAAAAATT against Usp3, the z-score is reported as inactive: -0.75. With GCAAGGAAAAUCUAUACCGTT against Rgs2 the z-score was inactive: -0.954. In the case of GCUGUCUUUGAACUAUAUATT against Cd200r4, the z-score is reported as inactive: -0.439. In the case of GCUUCAGAACAAGUCCCUGTT against Castor1, the z-score is reported as inactive: -0.252. In the case of “CCGAAAUCCUACAUAUAUGTT against B430209F14Rik”, the z-score is reported as inactive: -0.306. In the case of GGUAGCUAUCAAGGUCAUCTT against Hunk, the z-score is reported as inactive: -0.187. With CGCAGAAGUGCGUGAUUUCTT against Gsdme the z-score was inactive: 1.73. With GGCCACCUUCUUUGAGGUATT against Snai1 the z-score was inactive: 1.11. In the case of GGAAAGAGAACAUAAAAGATT against Pla2g4a, the z-score is reported as inactive: -0.995. In the case of CCUUGUAUUCCCAUCAUGCTT against AI467606, the z-score is reported as inactive: -0.111. With CCACUAUUAAACUUCUCAATT against Pex3 the z-score was inactive: 0.32. For GAACUGGAGAUCUUCGAACTT against Ltc4s, the z-score was inactive: 0.532. For GCUUUACGUUCAAGUUUAGTT against Ranbp2, the z-score was inactive: -0.382. In the case of GGUGACUGACAUGAUGAUATT against Pard6b, the z-score is reported as inactive: -0.449. With GCUAUUUUCAGCGAGCUGUTT against Lmo3 the z-score was inactive: -0.874. For GGCAUUGAUUGAUUCCUGUTT against Dnpep, the z-score was inactive: 0.897. In the case of GGUAAGGACUAUUUGAAUUTT against Lpar1, the z-score is reported as inactive: -0.429. With CGAAAGCAUUGCCUACUUUTT against Anks3 the z-score was inactive: 0.843. For CCAAUAAGAAUUCAGAUCGTT against Ufd1, the z-score was inactive: -0.15. With CGUGAAUUAUGGAAAUUAGTT against P2ry10b the z-score was inactive: 0.178. In the case of GGCCAGUGGGAAGUGAAGATT against Sec13, the z-score is reported as inactive: 0.124. In the case of GGGAAGUCACUUUUGUUCCTT against Top2a, the z-score is reported as inactive: 0.244. With GGGAAAUGUUGUAGUAGAUTT against Rars2 the z-score was inactive: 0.535. For GGAUUCAUCAUCUACCCGGTT against C1ql4, the z-score was inactive: -1.08. For GGCGGUACCUCUUCUUCAUTT against Aipl1, the z-score was active: 2.32. In the case of GGCUAAAACUACAAAGAAGTT against Rpl36a, the z-score is reported as inactive: -1.1. With GCUGAAAUCCAGGAUAGAGTT against Zw10 the z-score was active: -2.03. For GGAGUUCAUCCUCACAGAUTT against Vdr, the z-score was inactive: -0.524. In the case of GCACCGUUGAAGUCAAGGUTT against Tdrd6, the z-score is reported as inactive: -1.58. With CCAUUACAUCCAUUUGAUUTT against Cfap206 the z-score was inactive: 0.328. With GGUCCUGCUUCGUUAUCAGTT against Aldh6a1 the z-score was inactive: -0.487. For GGGAGGACACUAUUUGAUUTT against Slco2b1, the z-score was inactive: -0.888. For GGAGUACGAGAAGAGCUCUTT against Kcnq2, the z-score was inactive: -1.05. For GGAGCAACACUUGCGUACUTT against Ccnq, the z-score was inactive: 1.32. For CCCUGAAUAAGGCUGAUCUTT against Krt32, the z-score was inactive: -0.801. In the case of GGGAUUGGUUAUUUUACAUTT against Trmt12, the z-score is reported as inactive: -0.578. For GGAAUUAAGAAGACAAUUCTT against Emc2, the z-score was inactive: -1.22. For GGCCAAGAGGAUCAUGUCATT against Iqcd, the z-score was inactive: -0.908. For “GGCCAUGAAAUGAAUUUCUTT against 2410141K09Rik”, the z-score was inactive: 0.711. For GCACUGUGGUCCAUACUACTT against Olfr1002, the z-score was inactive: 0.844. In the case of UCGCGUCCGCUAGAAUGUUTT against Rragb, the z-score is reported as inactive: -1.61. With GGGUAGUUUUAAUUAAGCCTT against Lims1 the z-score was inactive: 1.08. In the case of GCUCAUGAAACUUUUGAACTT against Sik1, the z-score is reported as inactive: -0.279. With GGAGGAUGAGGAUUUUGAUTT against Spsb3 the z-score was active: 2.16. In the case of CCUCUUAUCUCGAACAUUATT against Dsn1, the z-score is reported as inactive: 0.95. With CCAGAACGCGGAGCAAAUUTT against Sec63 the z-score was active: 2.13. With CCACUUCCAUAGAGAUUUUTT against Tmx3 the z-score was active: 2.93. With GCUGAAAACUAUGAUGGCCTT against Nfkbib the z-score was inactive: 0.564. In the case of AACCUAACCAUUAUCCUCCTT against Olfr803, the z-score is reported as inactive: 0.074. For GGAGUGGGAAUCUUUGAAATT against Cenpp, the z-score was inactive: -0.689. For CAUUUCGCCCUGGAUAGUGTT against Olfr523, the z-score was inactive: -0.408. In the case of GGGAAAGAGAUACAAUGACTT against Prl2b1, the z-score is reported as inactive: 0.497. For GCUUACUACCAUUGGGAAUTT against Samt2, the z-score was inactive: 1.65. For GGCUUGGAUUUUGAAAUACTT against Srcin1, the z-score was inactive: -0.792. With GAAAUAUUUCUCAUCCUUGTT against Upk1b the z-score was inactive: 0.162. With GGCAACCAGAUAUUUGUUATT against Myef2 the z-score was inactive: 0.549. For GGAUGCUUUACCAAUGGUUTT against Mbtps2, the z-score was inactive: -0.374. In the case of GCCCGAUUAAAAUAAAUUGTT against Arih2, the z-score is reported as inactive: 0.636. With CCUGUGAGGCCAUUGAUUCTT against Acsbg1 the z-score was inactive: -1.33. With GGAGUUUGUGUUCCUGACGTT against Chst10 the z-score was inactive: -0.000128. In the case of GCAAAUUGUAUUAUAGAGCTT against Foxo1, the z-score is reported as inactive: -0.0105. With CCAGCUAAUUACUCAGCCUTT against Lyzl4 the z-score was inactive: 0.883. With GGUUCUAUGUUGACAAUCATT against Osgin2 the z-score was inactive: 0.621. With GCAAGGACUCUCAUGGUUGTT against Zfand1 the z-score was inactive: -0.0357. For GGUUACCUGUGCUAGAAAATT against Zswim5, the z-score was inactive: -0.519. In the case of GACACUACUCACAUCAGAUTT against Hes3, the z-score is reported as inactive: 0.777. In the case of GGGCAAUUUGGAGCUUACCTT against Erbb2, the z-score is reported as inactive: -0.952. For GCUCCAAGUCAAGGAAAAUTT against Traf3ip3, the z-score was inactive: 0.145. For GGCUAUGAGUGCCAUAUCCTT against Wfdc1, the z-score was inactive: 1.96. In the case of GGUGAAGAGUUCAAACAUCTT against Atp9a, the z-score is reported as inactive: 1.29. For GGAAUUCGCCAACUGGCUGTT against Slc14a1, the z-score was inactive: -0.135. In the case of GGAGAACACGCUCAGAAGATT against Lce1g, the z-score is reported as inactive: -0.601. For GGUGAUCAGCAUGGUGGGUTT against Pold1, the z-score was inactive: 0.208. For GGGAAGAGCGCAUAGAUACTT against Clca3a2, the z-score was inactive: 0.622.
